Source: PubChem BioAssay AID1159578 (Peter MacCallum Cancer Centre, 2015)

Assay: 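Knock-downs that alter how fast lymphatic endothelial cells migrate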 (primary screen)
Cells: human lymphatic endothelial cells
Reagents: siRNA pool against human genes, 40 nM
Duration: 48 h after transfection
Detection: 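High-content imaging of dye-stained cells in a scratch assay measures filled wound area and nuclei per well; duplicate means given as ratio to mock and robust z-score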
Direction: migration robust z-score: higher = faster migration into the scratch; nuclei per well: higher = more cells in the well
Hit rule: 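Migration changed when robust z exceeds 2 or falls below -2 and mean nuclei number is at least 3300; otherwise not called changed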
Meaning of the calls: active = migration changed; inactive = no migration change, or too few cells
The deposit covers about 18,000 reagents; this is a random part of them. About 1,030 of all reagents (5.7%) count as active. 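Inactive calls also include pools with fewer than 3300 nuclei, whose migration was not assessed.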 The raw values are shown without normalisation. Not all columns of the deposit are shown. No sequences are given here.

VRK2
- migration robust z-score: 0.03
- nuclei per well, duplicate mean: 5254
- call: inactive

APOB
- migration robust z-score: -0.78
- nuclei per well, duplicate mean: 3570
- call: inactive

RTL3
- migration robust z-score: -0.43
- nuclei per well, duplicate mean: 4346
- call: inactive

LOC155060
- migration robust z-score: -0.04
- nuclei per well, duplicate mean: 5731
- call: inactive

RAB42
- migration robust z-score: -0.32
- nuclei per well, duplicate mean: 5705
- call: inactive

SYNE1
- migration robust z-score: 0.6
- nuclei per well, duplicate mean: 6370
- call: inactive

TCF25
- migration robust z-score: 0.1
- nuclei per well, duplicate mean: 6045
- call: inactive

TENT4A
- migration robust z-score: 0.68
- nuclei per well, duplicate mean: 6233
- call: inactive

DGCR2
- migration robust z-score: -0.12
- nuclei per well, duplicate mean: 5542
- call: inactive

Already shown: entries from further up.
RAB42
- migration robust z-score: -0.32
- nuclei per well, duplicate mean: 5705
- call: inactive

SYNE1
- migration robust z-score: 0.6
- nuclei per well, duplicate mean: 6370
- call: inactive

The list goes on:
SLC6A11
- migration robust z-score: -1.45
- nuclei per well, duplicate mean: 4365
- call: inactive

CPLANE1
- migration robust z-score: -0.64
- nuclei per well, duplicate mean: 6738
- call: inactive

TP63
- migration robust z-score: -1.77
- nuclei per well, duplicate mean: 4536
- call: inactive

ZNF546
- migration robust z-score: -0.29
- nuclei per well, duplicate mean: 5546
- call: inactive

FICD
- migration robust z-score: -0.7
- nuclei per well, duplicate mean: 5168
- call: inactive
